Source: PMC9922244
Results are given in words; binding and its absence hold for the method and conditions named. Binding seen in cells or lysates may run through a third protein. Binding can be weak; no strength is given.

B1: tetraspanin CD63 (protein, UniProt Q9XSK2 1-237)
chain: MAVEGGMKCVKFLLYVLLLVFCACAVGLIAVGVGTHLVLNQTITHGATPSFLLPVVIIAVGAFLFLVAFVGCCGACKENYCLMITFAIFLSLIMLVEVAAAIAGYVFRDKVRSEFNKDFRQQMKNYPKDNQTASILDKMQKDFECCGAANYTDWEKILAVTNKVPDSCCVNITHNCGINFVVKDIHTEGCVEKIAAWLRKNVLVVAAAALGIAFVEILGIVLACCLVKSIRSGYEVM

What was measured:
Assay in all cases: co-IP; cow ovarian cortical tissue lysate in 1% Triton X-100 in PBS; 1 µg monoclonal antibody (anti-CD9, anti-CD63 or anti-αVβ3) 4 h at RT, Protein G Agarose overnight at 4 °C, 5 washes in PBS; eluted in non-reducing sample buffer; blotted with anti-αV (CD9 and CD63 precipitates) or anti-CD63 (αVβ3 precipitate)
[1] = target: T1, tetraspanin CD9 (bovine (endogenous in cow ovarian tissue)) (UniProt P30932)
T1 sequence: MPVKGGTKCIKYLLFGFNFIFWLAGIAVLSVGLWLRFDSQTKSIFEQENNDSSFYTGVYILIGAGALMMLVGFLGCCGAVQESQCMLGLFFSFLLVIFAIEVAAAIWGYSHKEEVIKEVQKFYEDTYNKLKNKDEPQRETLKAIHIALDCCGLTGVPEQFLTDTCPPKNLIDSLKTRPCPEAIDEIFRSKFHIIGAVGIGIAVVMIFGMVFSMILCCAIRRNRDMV

[2] = target: T2, tetraspanin CD63 (bovine (endogenous in cow ovarian tissue)) (UniProt Q9XSK2)
T2 sequence: B1 chain

[3] = target: integrin αVβ3 (bovine (endogenous in cow ovarian tissue))

Molecule | binding [1] | binding [2] | binding [3]
integrin alpha V | binds | binds | –
B1 | – | – | binds
